{
  "sequences": {"note": "By UniProt entry, the sequences of proteins in these tests, tags left out.", "UniProt P13612, whole entry, looked up": "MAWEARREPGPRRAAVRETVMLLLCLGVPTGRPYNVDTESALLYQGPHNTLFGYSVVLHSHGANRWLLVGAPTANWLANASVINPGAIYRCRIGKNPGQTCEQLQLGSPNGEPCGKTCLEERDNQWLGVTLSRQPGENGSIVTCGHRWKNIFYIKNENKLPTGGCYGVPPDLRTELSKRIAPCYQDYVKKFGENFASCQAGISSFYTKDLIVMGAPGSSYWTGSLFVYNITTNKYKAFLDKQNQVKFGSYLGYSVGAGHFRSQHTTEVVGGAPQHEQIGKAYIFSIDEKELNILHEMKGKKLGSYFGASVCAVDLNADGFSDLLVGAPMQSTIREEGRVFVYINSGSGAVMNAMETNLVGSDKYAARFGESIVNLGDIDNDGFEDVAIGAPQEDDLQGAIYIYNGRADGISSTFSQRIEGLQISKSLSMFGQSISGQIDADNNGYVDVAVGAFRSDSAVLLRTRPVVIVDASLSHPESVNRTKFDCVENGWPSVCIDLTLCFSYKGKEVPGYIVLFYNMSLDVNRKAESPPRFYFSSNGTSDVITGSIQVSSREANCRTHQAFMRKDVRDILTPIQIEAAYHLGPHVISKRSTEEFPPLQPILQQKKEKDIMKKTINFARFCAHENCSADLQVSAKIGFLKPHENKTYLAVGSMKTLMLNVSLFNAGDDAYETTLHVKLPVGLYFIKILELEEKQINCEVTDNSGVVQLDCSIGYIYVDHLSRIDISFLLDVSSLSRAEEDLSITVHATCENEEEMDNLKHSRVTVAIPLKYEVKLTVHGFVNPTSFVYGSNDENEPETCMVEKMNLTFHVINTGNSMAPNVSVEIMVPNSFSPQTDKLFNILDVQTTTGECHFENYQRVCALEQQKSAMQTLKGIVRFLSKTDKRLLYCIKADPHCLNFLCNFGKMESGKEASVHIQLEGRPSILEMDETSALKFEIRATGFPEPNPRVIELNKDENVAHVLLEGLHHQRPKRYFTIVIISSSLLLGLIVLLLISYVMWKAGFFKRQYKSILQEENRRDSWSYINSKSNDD"},
  "source": "PubChem BioAssay AID528",
  "about": "(NMMLSC, 2006)",
  "note": "In all, about 24,000 compounds went through this assay and fewer than 10 were called active. Inconclusive results, whose numbers are uncertain, are shown with a selection of clear calls.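 Rule for the calls: active = fluorescent ligand binding to cells raised by more than 40% of the manganese-induced maximum; inconclusive = compound's own fluorescence above 85% of the ligand control signal; inactive = the rest.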",
  "data": [
    {"target": "Integrin alpha-4 (Homo sapiens) (UniProt P13612)", "assay": "enhancers of LDV-FITC binding to VLA-4 integrin, primary screen, Jurkat cells, flow cytometry (AID 528);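 for activation: 0% = ligand binding without compound and 100% = manganese-stimulated maximal binding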", "details": "stronger effect = higher value, screened at 10 µM (by protocol)", "values": [
      {"compound": "Cc1ccc(C(c2sc3nc(C)nn3c2O)N2CCOCC2)cc1", "note": "(stereo not given)", "activation": "inconclusive"},
      {"compound": "Cc1cc2ccccc2n1CCNC(=O)c1ccccc1", "activation": "inconclusive"},
      {"compound": "O=C(Nc1ccc2c(c1)OCO2)c1cccc2c1C(=O)N(Cc1cccnc1)C2", "activation": "inconclusive"},
      {"compound": "CCN(CC)S(=O)(=O)c1ccc(NC(=O)Cn2cnc3ccccc3c2=O)cc1", "activation": "inactive: -3%"},
      {"compound": "CCOc1ccc(/C=c2\\sc3nc(-c4ccco4)nn3c2=O)cc1OCC", "activation": "inactive: 0%"},
      {"compound": "CN1CCN(CCCNc2nc3ccccc3c3nc(-c4ccccc4)nn23)CC1", "activation": "inconclusive"},
      {"compound": "O=C(CC1N=C2c3ccccc3N=C(SCc3ccc(Cl)cc3)N2C1=O)NCc1ccco1", "note": "(stereo not given)", "activation": "inconclusive"},
      {"compound": "CCn1c(N)c(C(=O)NCc2ccco2)sc1=S", "activation": "inactive: 4%"},
      {"compound": "CC1CCN(C2CC(=O)N(c3ccc(Br)cc3Br)C2=O)CC1", "note": "(stereo not given)", "activation": "inactive: 3%"},
      {"compound": "COCCn1nnnc1C(C(C)C)N(Cc1cccnc1)Cc1ccccc1Cl", "note": "(stereo not given)", "activation": "inactive: -1%"},
      {"compound": "O=C(NCC(c1cccnc1)N1CCN(c2ccc(F)cc2)CC1)c1ccc2c(c1)OCO2", "note": "(stereo not given)", "activation": "inconclusive"},
      {"compound": "c1ccc2c(NC3CCCC3)nnc(NC3CCCC3)c2c1", "activation": "inconclusive"},
      {"compound": "COc1ccc(OC)c(NC(=O)C2CCCN(S(=O)(=O)c3cccc4cccnc34)C2)c1", "note": "(stereo not given)", "activation": "inconclusive"},
      {"compound": "S=c1[nH]nc(C23CC4CC(CC(C4)C2)C3)n1Cc1ccco1", "activation": "inactive: -2%"},
      {"compound": "Cc1nc(SCc2cccc(F)c2)[nH]c(=O)c1C#N", "activation": "inconclusive"},
      {"compound": "CC(=Nc1cccc(O)c1)c1sc2ccccc2c1O", "activation": "inconclusive"},
      {"compound": "Cc1ccc2c(c1)[nH]c1c(N3CCN(Cc4ccccc4)CC3)ncnc12", "activation": "inconclusive"},
      {"compound": "Cc1ccc2c(c1)c1c3n2CC(=C2C(=O)OC(C)(C)OC2=O)NC3CCC1", "note": "(stereo not given)", "activation": "inconclusive"},
      {"compound": "Cc1ccc(/C=c2\\sc3nc(-c4cccnc4)nn3c2=O)cc1", "activation": "inconclusive"},
      {"compound": "COc1ccc(-c2cc(C(F)(F)F)nc(N3CCOCC3)n2)cc1OC", "activation": "inactive: -10.3%"},
      {"compound": "COc1ccccc1-n1nnnc1SCc1cc2c(cc1Br)OCO2", "activation": "inactive: -1%"},
      {"compound": "COC(=O)c1ccc(NC(=O)CN(c2ccc(C)cc2)S(=O)(=O)c2c(C)n[nH]c2C)cc1", "activation": "inconclusive"},
      {"compound": "Cn1c(=O)n(CCc2ccccc2)c(=O)c2c1nc1n2CCN1c1ccccc1", "activation": "inactive: 5%"},
      {"compound": "COc1ccc(NC(=O)CSC2=NC(=O)CC(C)=N2)cc1", "activation": "inconclusive"},
      {"compound": "O=C(CCCCCn1c(SCC(=O)c2ccccc2)nc2ccccc2c1=O)NCc1ccco1", "activation": "inconclusive"},
      {"compound": "CCOCCCN1CC(C(=O)NCCc2ccccc2)CC1=O", "note": "(stereo not given)", "activation": "inconclusive"},
      {"compound": "COc1ccccc1-c1ccc(C(=O)O)o1", "activation": "inconclusive"},
      {"compound": "COc1cccc2sc(N3CCN(c4nc5ccccc5s4)CC3)nc12", "activation": "inconclusive"},
      {"compound": "CN1CCCc2cc(C#N)c(=O)[nH]c21", "activation": "inactive: -3%"},
      {"compound": "CCC1CCCCN1C1Sc2ccc(C(=O)OC)cc2NC1=O", "note": "(stereo not given)", "activation": "inconclusive"},
      {"compound": "Clc1ccc(Oc2nc(Oc3ccc(Cl)cc3)nc(N3CCOCC3)n2)cc1", "activation": "inconclusive"},
      {"compound": "CC1Cc2nc(SCC(=O)Nc3ccccc3F)n(C)c(=O)c2S1", "note": "(stereo not given)", "activation": "inactive: -5.7%"},
      {"compound": "CC(C)n1c(CCC(=O)O)ccc1-c1ccccc1", "activation": "inactive: 1%"},
      {"compound": "COc1ccc(-c2cn3cccnc3n2)cc1NC(=O)C1CC1", "activation": "inactive: -6%"},
      {"compound": "FC(F)Sc1ccc(Nc2ncnc3nc[nH]c23)cc1", "activation": "inconclusive"},
      {"compound": "COc1ccc(-n2cc(-c3ccccc3)c3c(N4CCN(CCO)CC4)ncnc32)cc1", "activation": "inactive: -5.3%"},
      {"compound": "COc1cc2[nH]c(=O)n(CCCC(=O)NCCc3ccccc3)c(=O)c2cc1OC", "activation": "inconclusive"},
      {"compound": "O=C(CC(C(=O)N1CCc2ccccc21)n1ccnc1)N1CCc2ccccc2C1", "note": "(stereo not given)", "activation": "inactive: 11%"},
      {"compound": "CCOC(=O)c1[nH]c(C)c(C(=O)N2CCN(c3ccc(F)cc3)CC2)c1C", "activation": "inconclusive"},
      {"compound": "Cn1c(=O)oc2cc(S(=O)(=O)NCCN3CCc4ccccc4C3)ccc21", "activation": "inconclusive"},
      {"compound": "Cn1c(COc2ccc(Cl)cc2)nc2ccccc2c1=O", "activation": "inconclusive"},
      {"compound": "COc1ccc(S(=O)(=O)n2nc(OC(=O)c3c(-c4ccccc4Cl)noc3C)cc2N)cc1", "activation": "inactive: -4%"},
      {"compound": "CC(C)Sc1oc(-c2ccco2)nc1S(=O)(=O)c1ccccc1", "activation": "inconclusive"},
      {"compound": "Fc1ccccc1Cn1nnc2c(-n3ccnc3)ncnc21", "activation": "inactive: 8%"},
      {"compound": "COc1cc(C2Nc3cccc4cccc(c34)N2)cc(OC)c1O", "activation": "inconclusive"},
      {"compound": "CCCc1cc(C(=O)Nc2ccc(C(C)=O)cc2)no1", "activation": "inactive: 1.7%"},
      {"compound": "Nc1nc(SCC(=O)N2CCCc3ccccc32)n(-c2ccccc2)n1", "activation": "inactive: 2%"},
      {"compound": "O=S(=O)(O)CCN1CCOCC1", "activation": "inactive: -6%"},
      {"compound": "Cc1nc2ccc(S(=O)(=O)NC(C(=O)N3CCCCCC3)C(C)C)cc2s1", "note": "(stereo not given)", "activation": "inconclusive"},
      {"compound": "COc1ccc(Cl)cc1NC(=O)C1CCCN(S(=O)(=O)c2cccc3nonc23)C1", "note": "(stereo not given)", "activation": "inconclusive"}
    ]}
  ]
}
